Laboratory results as given in PMC8910471, “The Finely Coordinated Action of SSB and NurA/HerA Complex Strictly Regulates the DNA End Resection Process in Saccharolobus solfataricus”.
For at least one entry, the source does not settle the construct or the ends of the probe. At least one verdict was read from the data and is not stated in words by the source.

System: NurA + HerA
Assay: EMSA
Conditions: NurA/HerA without SSB; EMSA: 5 pmol fluorescent DNA in 10 ul, 20 mM HEPES/NaOH pH 7.5, 35 mM beta-mercaptoethanol, 500 mM NaCl, 10 min room temperature; recombinant protein; single-stranded DNA

Sequence: GTTTTCCCAGTCACGAC [17 merTAMRA]
- binding result: binds
